From article PMC9402538 (Nature Communications, 2022)
Some peptides are written in HELM: one residue between dots, names in brackets for other building blocks, links after the first $.

Experiment: general procedure: Fmoc solid-phase peptide synthesis; Fmoc-Amide AM Resin (0.35 mmol/g, 572mg) for peptides; Rink Amide-MBHA resin (0.646 mmol/g, 100mg) for tracers; HBTU or PyBOP with DIPEA (peptides); DIC/HOBt (tracers)
Details: whole synthesis; for final HPLC purity: analytical RP-HPLC

| Substance | isolated yield [%] | final HPLC purity [%] |
| --- | --- | --- |
| PEPTIDE1{[3-MPA].A.G.E.S.L.Y.E.[am]}$$$$V2.0 | 12 | 98.6 |
| PEPTIDE1{[Pyrrole2CO].A.G.E.S.L.Y.E.[am]}$$$$V2.0 | 11.6 | 98.5 |
| PEPTIDE1{[Acryloyl].A.G.E.S.L.Y.E.[am]}$$$$V2.0 | 12 | 98.1 |
| PEPTIDE1{[4MeOBz].A.G.E.S.[hLeu].Y.E.[am]}$$$$V2.0 | 13 | 98.6 |
| PEPTIDE1{[Picolinoyl].A.G.E.S.L.Y.E.[am]}$$$$V2.0 | 14 | 98.5 |
| PEPTIDE1{[4MeOBz].A.G.E.S.[cPrAla].Y.E.[am]}$$$$V2.0 | 12.8 | 98.4 |
| PEPTIDE1{[cPentCO].A.G.E.S.L.Y.E.[am]}$$$$V2.0 | 12 | 98.2 |
| PEPTIDE1{[4MeOBz].A.G.E.S.[Cha].Y.E.[am]}$$$$V2.0 | 13.2 | 98.4 |
| PEPTIDE1{[NMePyrrole2CO].A.G.E.S.L.Y.E.[am]}$$$$V2.0 | 12 | 98.3 |
| PEPTIDE1{[Thiazole-5-CO].A.G.E.S.L.Y.E.[am]}$$$$V2.0 | 15.1 | 98.7 |
| PEPTIDE1{[1-AdCO].A.G.E.S.L.Y.E.[am]}$$$$V2.0 | 15 | 98.7 |
| PEPTIDE1{[cHexCO].A.G.E.S.L.Y.E.[am]}$$$$V2.0 | 16 | 98.8 |
| PEPTIDE1{[Bz].A.G.E.S.L.Y.E.[am]}$$$$V2.0 | 12.6 | 98.8 |
| PEPTIDE1{[4MeOBz].A.G.E.S.[cPenAla].Y.E.[am]}$$$$V2.0 | 13.5 | 98.1 |
| PEPTIDE1{[ac].[gAA_Leu_Ms].[gAA_Phe_Ms].[gAA_Glu_ClPhS].[gAA_Trp_Ms].[gAA_Lys_Ms].[gAA_Leu_iBuS].[gAA_Ala_Ms].[am]}$$$$V2.0 | 23.2 | 99.0 |
| PEPTIDE1{[Nicotinoyl].A.G.E.S.L.Y.E.[am]}$$$$V2.0 | 12.6 | 98.1 |
| PEPTIDE1{[iNic].A.G.E.S.L.Y.E.[am]}$$$$V2.0 | 14.3 | 98.2 |
| PEPTIDE1{[4-MeBz].A.G.E.S.L.Y.E.[am]}$$$$V2.0 | 11.8 |  |
| PEPTIDE1{[4MeOBz].A.G.E.S.L.Y.[Phe4tBu].[am]}$$$$V2.0 | 13.3 | 98.3 |
| PEPTIDE1{[4MeOBz].A.G.E.S.L.Y.E.[am]}$$$$V2.0 | 12.7 | 98.6 |
| (4S,7S,10S,13S,16S)-4-carbamoyl-7-(4-hydroxybenzyl)-13-(hydroxymethyl)-10-isobutyl-6,9,12,15-tetraoxo-16-(2-((S)-2-(thiop-hene-2-carboxamido)propanamido)acetamido)-5,8,11,14-tetraazanonadecanedioic acid | 12.5 | 98.4 |
| PEPTIDE1{[Furan-2-CO].A.G.E.S.L.Y.E.[am]}$$$$V2.0 | 11.6 | 98.5 |
| PEPTIDE1{[4MeOBz].A.G.E.S.L.Y.[Bpa].[am]}$$$$V2.0 | 9.8 | 98.1 |
